Results are given in words; binding and its absence hold for the method and conditions named. Binding calls can cover weak binding; strength is not graded here. Where a sequence is shown, tags or fusion partners need not be part of it.
Target: yeast dynein^DK (open mutant that cannot adopt the phi conformation) (S. cerevisiae)
Assay: TIRF microscopy microtubule recruitment assay; yeast proteins; dynein on taxol-stabilised microtubules held by anti-tubulin antibody; fluorescent partner flowed in, TEV buffer with 1 mM DTT, 5-10 min; intensity along microtubules; both purified

binding: binds
B1: full-length yeast Ndl1 with C-terminal FLAG-SNAPf (protein, UniProt Q06568 1-189)
chain: MVPNLDLETAIQIISSLETQLSELEGATKEYENDLEQVISKLKSDLLESQQQNKCNKKQITDLEIQVDELENENIQLRNKIETLQLESDRRLERNVLLEHELLDTKEALQKLRVSKEEATSGETRRNTRSLPSQNKKMKLFKDTIKVSTTSSTLYLQNMAKTNNAARSHCNIPNTQITQSTVIATTSSV
modifications: JFX554-SNAP or JFX650-SNAP ligand on the SNAPf tag
